Reference: PMC10908796, “RTF2 controls replication repriming and ribonucleotide excision at the replisome” (Nature Communications, 2024)
Results are given in words; binding and its absence hold for the method and conditions named. In cells and extracts the contact can be indirect. Here binding means that the protein was enriched with, or labelled near, the bait; the list need not be complete. Where a sequence is shown, tags or fusion partners need not be part of it.

Amino acid sequences for entries named in this document (tags omitted).
UniProt O75792: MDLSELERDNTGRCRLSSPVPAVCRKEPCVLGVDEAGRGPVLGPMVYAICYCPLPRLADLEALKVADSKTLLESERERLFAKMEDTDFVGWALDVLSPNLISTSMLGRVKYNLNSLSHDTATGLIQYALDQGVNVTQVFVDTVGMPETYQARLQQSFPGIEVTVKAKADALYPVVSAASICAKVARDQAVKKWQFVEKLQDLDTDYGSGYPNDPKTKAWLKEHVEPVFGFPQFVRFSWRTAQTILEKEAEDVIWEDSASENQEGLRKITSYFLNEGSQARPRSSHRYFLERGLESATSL

Experiments:
[1] = target: T1, GFP-AID-RTF2 (endogenously tagged) (human) (UniProt Q9BY42); experiment: affinity purification with mass spectrometry; endogenously tagged GFP-AID-RTF2 HEK293T cells; lysate (50 mM HEPES pH 7.5, 150 mM NaCl, 2 mM MgCl2, 0.1% Tween-20, sonicated, benzonase) on GFP-rabbit antibody coupled M270 epoxy beads, 2 h at 4 °C; eluted with 8 M urea; LC-MS
T1 sequence: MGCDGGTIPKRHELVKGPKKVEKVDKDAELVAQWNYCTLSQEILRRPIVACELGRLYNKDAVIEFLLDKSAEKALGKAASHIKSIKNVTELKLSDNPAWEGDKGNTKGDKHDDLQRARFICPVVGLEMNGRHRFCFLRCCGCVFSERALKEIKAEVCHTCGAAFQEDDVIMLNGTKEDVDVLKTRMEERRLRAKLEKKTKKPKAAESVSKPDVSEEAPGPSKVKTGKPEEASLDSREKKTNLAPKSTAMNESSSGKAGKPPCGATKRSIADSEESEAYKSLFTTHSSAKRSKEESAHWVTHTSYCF

[2] = target: T2, GFP-hRTF2 (overexpressed) (human) (UniProt Q9BY42); experiment: affinity purification with mass spectrometry; HEK293T overexpressing GFP-EV or GFP-hRTF2; chromatin extracts on GFP-nanobody coupled M270 epoxy beads, 2 h at 4 °C; eluted with 8 M urea; LC-MS
T2 sequence: T1 sequence

RNASEH2A, endogenous (from UniProt O75792 1-299)
binding [1]: binds
binding [2]: binds
